The name of at least one read-out is uncertain.
Test system: cellules de Langerhans
Assay: Migration of freshly isolated, DNSB-sensitised Langerhans cells through Matrigel in a two-compartment culture chamber
Settings: Example 3; cells sensitised with DNSB 50 µM alone; control cells = 1

For `O=[N+]([O-])c1ccc(S(=O)(=O)O)c([N+](=O)[O-])c1` [DNSB, reference compound], the Index de migration was 2,13.

Source: patent EP2266530A1, “Oxazolidinones for cosmetic cutaneous use” (Laboratoires Expanscience, priority 2002, dated 2004)
